Data as given in the supplement of paper PMC8728848.
The list shows a part of the results.

Experiments:
Experiment in all cases: glycan array binding signal (z-score within array); higher = stronger binding
Details in all cases: glycan notation: IUPAC condensed, linker removed
GalNAc(b1-4)Gal(b1-4)Glc = molecular target: GalNAc(b1-4)Gal(b1-4)Glc
In short: (§1)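 The binding signal is a Z-score computed within each array. Data were drawn from 3228 arrays in the Consortium for Functional Glycomics database, restricted to those with a known protein sequence. Scores were averaged over arrays of the same protein sequence at different concentrations or buffers, and over linkers, and negative values can be taken as non-binding.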

GalNAc(b1-4)GlcNAc = molecular target: GalNAc(b1-4)GlcNAc
In short: as §1

[1] = molecular target: GalNAc(b1-4)GlcNAc(b1-2)Man
In short: as §1

[2] = molecular target: GalNAc(b1-4)GlcNAc(b1-2)Man(a1-3)[GalNAc(b1-4)GlcNAc(b1-2)Man(a1-6)]Man(b1-4)GlcNAc(b1-4)GlcNAc
In short: as §1

[3] = molecular target: GalNAc(b1-4)GlcNAc(b1-3)GalNAc(b1-4)GlcNAc
In short: as §1

GalNAc(b1-4)GlcNAc6S = molecular target: GalNAc(b1-4)GlcNAc6S
In short: as §1

GalNAc(b1-6)GalNAc = molecular target: GalNAc(b1-6)GalNAc
In short: as §1

GalNAc3S(b1-4)GlcNAc = molecular target: GalNAc3S(b1-4)GlcNAc
In short: as §1

GalNAc3S(b1-4)GlcNAc3S = molecular target: GalNAc3S(b1-4)GlcNAc3S
In short: as §1

[4] = molecular target: GalNAc3S(b1-4)[Fuc(a1-3)]GlcNAc
In short: as §1

GalNAc4S6S(b1-4)GlcNAc = molecular target: GalNAc4S6S(b1-4)GlcNAc
In short: as §1

GalNAc6S(b1-4)GlcNAc = molecular target: GalNAc6S(b1-4)GlcNAc
In short: as §1

Glc(a1-4)Glc = molecular target: Glc(a1-4)Glc
In short: as §1

[5] = molecular target: Glc(a1-4)Glc(a1-4)Glc(a1-4)Glc
In short: as §1

Glc(a1-6)Glc(a1-6)Glc = molecular target: Glc(a1-6)Glc(a1-6)Glc
In short: as §1

[6] = molecular target: Glc(a1-6)Glc(a1-6)Glc(a1-6)Glc
In short: as §1

Glc(b1-4)Glc = molecular target: Glc(b1-4)Glc
In short: as §1

Glc(b1-6)Glc = molecular target: Glc(b1-6)Glc
In short: as §1

GlcA(b1-3)Gal = molecular target: GlcA(b1-3)Gal
In short: as §1

GlcA(b1-3)GlcNAc = molecular target: GlcA(b1-3)GlcNAc
In short: as §1

GlcA(b1-6)Gal = molecular target: GlcA(b1-6)Gal
In short: as §1

[7] = molecular target: GlcA3S(b1-3)Gal(b1-4)GlcNAc(b1-2)Man
In short: as §1

[8] = molecular target: GlcA3S(b1-3)Gal(b1-4)GlcNAc(b1-3)Gal(b1-4)Glc
In short: as §1

[9] = molecular target: GlcNAc(a1-3)Gal(b1-4)GlcNAc
In short: as §1

[10] = molecular target: GlcNAc(a1-4)Gal(b1-3)GlcNAc
In short: as §1

[11] = molecular target: GlcNAc(a1-4)Gal(b1-4)GalNAc
In short: as §1

[12] = molecular target: GlcNAc(a1-4)Gal(b1-4)GlcNAc
In short: as §1

[13] = molecular target: GlcNAc(a1-4)Gal(b1-4)GlcNAc(b1-3)Gal(b1-4)Glc
In short: as §1

[14] = molecular target: GlcNAc(a1-4)Gal(b1-4)GlcNAc(b1-3)Gal(b1-4)GlcNAc
In short: as §1

[15] = molecular target: GlcNAc(a1-4)Gal(b1-4)GlcNAc(b1-3)Gal(b1-4)GlcNAc(b1-3)Gal(b1-4)GlcNAc
In short: as §1

[16] = molecular target: GlcNAc(a1-4)Gal(b1-4)GlcNAc(b1-3)Gal(b1-4)[Fuc(a1-3)]GlcNAc(b1-3)Gal(b1-4)[Fuc(a1-3)]GlcNAc
In short: as §1

[17] = molecular target: GlcNAc(a1-6)Gal(b1-4)GlcNAc
In short: as §1

[18] = molecular target: GlcNAc(b1-2)Gal(b1-3)GalNAc
In short: as §1

[19] = molecular target: GlcNAc(b1-2)Man(a1-3)[GlcNAc(b1-2)Man(a1-6)]Man(b1-4)GlcNAc(b1-4)GlcNAc
In short: as §1

[20] = molecular target: GlcNAc(b1-2)Man(a1-3)[GlcNAc(b1-2)Man(a1-6)]Man(b1-4)GlcNAc(b1-4)[Fuc(a1-6)]GlcNAc
In short: as §1

[21] = molecular target: GlcNAc(b1-2)Man(a1-3)[GlcNAc(b1-4)][GlcNAc(b1-2)Man(a1-6)]Man(b1-4)GlcNAc(b1-4)GlcNAc
In short: as §1

[22] = molecular target: GlcNAc(b1-2)Man(a1-3)[GlcNAc(b1-4)][GlcNAc(b1-2)Man(a1-6)]Man(b1-4)GlcNAc(b1-4)[Fuc(a1-6)]GlcNAc
In short: as §1

[23] = molecular target: GlcNAc(b1-2)[GlcNAc(b1-4)]Man(a1-3)[GlcNAc(b1-2)Man(a1-6)]Man(b1-4)GlcNAc(b1-4)GlcNAc
In short: as §1

[24] = molecular target: GlcNAc(b1-2)[GlcNAc(b1-4)]Man(a1-3)[GlcNAc(b1-4)][GlcNAc(b1-2)Man(a1-6)]Man(b1-4)GlcNAc(b1-4)GlcNAc
In short: as §1

[25] = molecular target: GlcNAc(b1-2)[GlcNAc(b1-4)]Man(a1-3)[GlcNAc(b1-4)][GlcNAc(b1-2)[GlcNAc(b1-6)]Man(a1-6)]Man(b1-4)GlcNAc(b1-4)GlcNAc
In short: as §1

[26] = molecular target: GlcNAc(b1-2)[GlcNAc(b1-4)]Man(a1-3)[GlcNAc(b1-4)][GlcNAc(b1-2)[GlcNAc(b1-6)]Man(a1-6)]Man(b1-4)GlcNAc(b1-4)[Fuc(a1-6)]GlcNAc
In short: as §1

[27] = molecular target: GlcNAc(b1-2)[GlcNAc(b1-6)]Man(a1-6)[GlcNAc(b1-2)Man(a1-3)]Man(b1-4)GlcNAc(b1-4)GlcNAc
In short: as §1

[28] = molecular target: GlcNAc(b1-2)[GlcNAc(b1-6)]Man(a1-6)[GlcNAc(b1-2)Man(a1-3)]Man(b1-4)GlcNAc(b1-4)[Fuc(a1-6)]GlcNAc
In short: as §1

[29] = molecular target: GlcNAc(b1-2)[GlcNAc(b1-6)]Man(a1-6)[GlcNAc(b1-2)Man(a1-3)][GlcNAc(b1-4)]Man(b1-4)GlcNAc(b1-4)GlcNAc
In short: as §1

[30] = molecular target: GlcNAc(b1-2)[GlcNAc(b1-6)]Man(a1-6)[GlcNAc(b1-4)][GlcNAc(b1-2)Man(a1-3)]Man(b1-4)GlcNAc(b1-4)GlcNAc
In short: as §1

GlcNAc(b1-3)Fuc = molecular target: GlcNAc(b1-3)Fuc
In short: as §1

GlcNAc(b1-3)Gal = molecular target: GlcNAc(b1-3)Gal
In short: as §1

[31] = molecular target: GlcNAc(b1-3)Gal(b1-3)GalNAc
In short: as §1

GlcNAc(b1-3)Gal(b1-4)Glc = molecular target: GlcNAc(b1-3)Gal(b1-4)Glc
In short: as §1

[32] = molecular target: GlcNAc(b1-3)Gal(b1-4)GlcNAc
In short: as §1

[33] = molecular target: GlcNAc(b1-3)Gal(b1-4)GlcNAc(b1-2)Man(a1-3)[GlcNAc(b1-3)Gal(b1-4)GlcNAc(b1-2)Man(a1-6)]Man(b1-4)GlcNAc(b1-4)GlcNAc
In short: as §1

[34] = molecular target: GlcNAc(b1-3)Gal(b1-4)GlcNAc(b1-2)Man(a1-3)[GlcNAc(b1-3)Gal(b1-4)GlcNAc(b1-2)Man(a1-6)]Man(b1-4)GlcNAc(b1-4)[Fuc(a1-6)]GlcNAc
In short: as §1

B1: NK11 (Sus scrofa) (peptide)
chain: KISKRILTGKK
glycan array binding signal (z-score) (GalNAc(b1-4)Gal(b1-4)Glc): -0.229 | glycan array binding signal (z-score) (GalNAc(b1-4)GlcNAc): -0.338 | glycan array binding signal (z-score) [1]: -1.45 | glycan array binding signal (z-score) [2]: -0.461 | glycan array binding signal (z-score) [3]: -0.419 | glycan array binding signal (z-score) (GalNAc(b1-4)GlcNAc6S): 2.55 | glycan array binding signal (z-score) (GalNAc(b1-6)GalNAc): -0.974 | glycan array binding signal (z-score) (GalNAc3S(b1-4)GlcNAc): 0.468 | glycan array binding signal (z-score) (GalNAc3S(b1-4)GlcNAc3S): 1.96 | glycan array binding signal (z-score) [4]: 0.203 | glycan array binding signal (z-score) (GalNAc4S6S(b1-4)GlcNAc): 1.08 | glycan array binding signal (z-score) (GalNAc6S(b1-4)GlcNAc): 0.009 | glycan array binding signal (z-score) (Glc(a1-4)Glc): -0.441 | glycan array binding signal (z-score) [5]: -0.119 | glycan array binding signal (z-score) (Glc(a1-6)Glc(a1-6)Glc): -0.591 | glycan array binding signal (z-score) [6]: -0.034 | glycan array binding signal (z-score) (Glc(b1-4)Glc): -0.842 | glycan array binding signal (z-score) (Glc(b1-6)Glc): -0.905 | glycan array binding signal (z-score) (GlcA(b1-3)Gal): -0.625 | glycan array binding signal (z-score) (GlcA(b1-3)GlcNAc): -0.041 | glycan array binding signal (z-score) (GlcA(b1-6)Gal): -0.877 | glycan array binding signal (z-score) [7]: 2.08 | glycan array binding signal (z-score) [8]: -1.34 | glycan array binding signal (z-score) [9]: -0.782 | glycan array binding signal (z-score) [10]: -0.995 | glycan array binding signal (z-score) [11]: -1.09 | glycan array binding signal (z-score) [12]: -0.68 | glycan array binding signal (z-score) [13]: -0.186 | glycan array binding signal (z-score) [14]: 0.445 | glycan array binding signal (z-score) [15]: -0.593 | glycan array binding signal (z-score) [16]: -0.36 | glycan array binding signal (z-score) [17]: -1.01 | glycan array binding signal (z-score) [18]: -0.728 | glycan array binding signal (z-score) [19]: -0.184 | glycan array binding signal (z-score) [20]: 2.26 | glycan array binding signal (z-score) [21]: 0.163 | glycan array binding signal (z-score) [22]: -0.275 | glycan array binding signal (z-score) [23]: -0.053 | glycan array binding signal (z-score) [24]: -0.207 | glycan array binding signal (z-score) [25]: -0.172 | glycan array binding signal (z-score) [26]: 0.997 | glycan array binding signal (z-score) [27]: 0.472 | glycan array binding signal (z-score) [28]: 0.899 | glycan array binding signal (z-score) [29]: -0.249 | glycan array binding signal (z-score) [30]: -0.237 | glycan array binding signal (z-score) (GlcNAc(b1-3)Fuc): 0 | glycan array binding signal (z-score) (GlcNAc(b1-3)Gal): -0.073 | glycan array binding signal (z-score) [31]: -0.235 | glycan array binding signal (z-score) (GlcNAc(b1-3)Gal(b1-4)Glc): -0.044 | glycan array binding signal (z-score) [32]: -0.743 | glycan array binding signal (z-score) [33]: 0.18 | glycan array binding signal (z-score) [34]: 1.05
